This assay deals with T1, Full-length (FL) recombinant human C-Myc/DDK-β-parvin (human) (UniProt Q9HBI1).
T1 sequence: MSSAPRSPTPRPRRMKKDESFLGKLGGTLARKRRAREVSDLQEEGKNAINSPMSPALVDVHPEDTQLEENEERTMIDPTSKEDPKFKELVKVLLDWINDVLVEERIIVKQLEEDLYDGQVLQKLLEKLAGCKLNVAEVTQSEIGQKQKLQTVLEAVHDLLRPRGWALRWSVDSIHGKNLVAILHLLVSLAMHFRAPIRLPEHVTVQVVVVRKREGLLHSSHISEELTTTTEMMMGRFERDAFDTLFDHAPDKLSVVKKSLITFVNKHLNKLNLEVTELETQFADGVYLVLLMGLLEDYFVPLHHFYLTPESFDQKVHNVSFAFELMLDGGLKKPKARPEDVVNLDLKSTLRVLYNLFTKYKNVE
Kind of assay: ELISA; wells coated with recombinant FL human β-parvin; biotinylated cytoplasmic tails of syndecans 1-4 or SDC4scram overlaid; as in Mathiesen et al., 2019; both purified. For orientation: ELISA stands for enzyme-linked immunosorbent assay.

Results are given in words; binding and its absence hold for the method and conditions named. Sequences can lack the tags named with a protein.

Regarding RMRKKDEGSYDLGERKPSSAAYQKAPTKEFYA (peptide, UniProt P34741 170-201, biotin) [biotinylated cytoplasmic tail of syndecan-2 (SDC2cyt)], the binding result is recorded as “no binding”.
For YRMKKKDEGSYSLEEPKQANGGAYQKPTKQEEFYA (peptide, UniProt P18827 276-310, biotin) [biotinylated cytoplasmic tail of syndecan-1 (SDC1cyt)], the binding entry is “no binding”.
In the case of YRMKKKDEGSYTLEEPKQASVTYQKPDKQEEFYA (peptide, UniProt O75056 409-442, biotin) [biotinylated cytoplasmic tail of syndecan-3 (SDC3cyt)], the binding entry is listed as “no binding”.

The record behind these values is article PMC12447578, “Syndecan-4 interacts directly with β-parvin and regulates the ILK-PINCH-β-parvin complex, the β-parvin-β-PIX-Rac1 axis, and cardiomyocyte geometry in a sex-dependent manner” (Frontiers in Cell and Developmental Biology, 2025).
